Reference: PMC12013085, “Peptides targeting RAB11A–FIP2 complex inhibit HPIV3, RSV, and IAV replication as broad-spectrum antivirals” (Cell & Bioscience, 2025)
Like-named read-outs stand apart in the source and are kept apart here. No constants are given. Whether binding was seen depends on the method and setting. In cells and extracts the contact can be indirect. Some results given as binding are weak or reduced against the parent protein; the word gives no strength.

Protein sequences, listed by entry. Tags and fused reporters are not part of them.
UniProt P62491, whole entry: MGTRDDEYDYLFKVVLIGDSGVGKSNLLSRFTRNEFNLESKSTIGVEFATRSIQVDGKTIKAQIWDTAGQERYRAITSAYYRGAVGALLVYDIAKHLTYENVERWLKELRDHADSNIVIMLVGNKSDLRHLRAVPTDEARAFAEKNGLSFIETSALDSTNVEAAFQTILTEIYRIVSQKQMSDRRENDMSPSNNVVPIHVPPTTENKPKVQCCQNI
UniProt Q7L804, whole entry: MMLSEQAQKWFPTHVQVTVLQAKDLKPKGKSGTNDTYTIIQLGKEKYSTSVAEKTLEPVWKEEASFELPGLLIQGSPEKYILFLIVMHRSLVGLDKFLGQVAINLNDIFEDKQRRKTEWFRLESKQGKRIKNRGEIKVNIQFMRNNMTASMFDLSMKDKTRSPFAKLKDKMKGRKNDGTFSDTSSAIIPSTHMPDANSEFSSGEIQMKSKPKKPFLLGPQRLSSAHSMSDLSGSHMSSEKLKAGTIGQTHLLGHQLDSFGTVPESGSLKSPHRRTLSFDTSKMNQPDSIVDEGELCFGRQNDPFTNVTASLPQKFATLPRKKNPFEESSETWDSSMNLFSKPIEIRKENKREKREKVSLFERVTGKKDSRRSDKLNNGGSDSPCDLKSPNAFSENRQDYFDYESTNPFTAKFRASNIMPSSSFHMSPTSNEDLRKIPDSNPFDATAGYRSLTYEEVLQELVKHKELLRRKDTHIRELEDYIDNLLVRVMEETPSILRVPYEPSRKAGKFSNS
UniProt P06162, whole entry: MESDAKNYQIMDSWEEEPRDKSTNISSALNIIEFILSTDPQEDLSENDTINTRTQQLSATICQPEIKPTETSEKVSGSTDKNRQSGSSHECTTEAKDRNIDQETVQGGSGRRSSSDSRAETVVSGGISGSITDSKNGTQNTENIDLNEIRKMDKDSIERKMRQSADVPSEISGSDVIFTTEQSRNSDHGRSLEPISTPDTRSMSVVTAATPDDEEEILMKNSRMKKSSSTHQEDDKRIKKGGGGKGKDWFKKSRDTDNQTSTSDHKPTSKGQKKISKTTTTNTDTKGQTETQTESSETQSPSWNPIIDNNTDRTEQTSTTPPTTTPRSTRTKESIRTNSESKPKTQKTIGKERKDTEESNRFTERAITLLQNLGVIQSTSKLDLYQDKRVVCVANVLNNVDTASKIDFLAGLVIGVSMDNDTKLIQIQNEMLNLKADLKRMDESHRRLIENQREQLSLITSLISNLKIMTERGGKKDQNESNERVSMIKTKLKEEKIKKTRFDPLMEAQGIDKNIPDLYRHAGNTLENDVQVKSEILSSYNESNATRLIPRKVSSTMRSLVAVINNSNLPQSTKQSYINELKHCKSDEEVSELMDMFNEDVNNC

How the values were obtained:
Flag-RAB11A [1] = target: Flag-RAB11A (UniProt P62491); test: co-IP; 293T cells transfected one by one with FIP2, N and RAB11A for 36 h, lysates mixed for in vitro co-IP; anti-Flag magnetic beads; control peptide Tat (Fig. 5A)
Flag-RAB11A [2] = target: Flag-RAB11A (UniProt P62491)

| binding (Flag-RAB11A [1]) | Substance | binding (Flag-RAB11A [2]) |
| --- | --- | --- |
| binds | RAB11 family interacting protein 2 (FIP2) (from UniProt Q7L804 1-512) | – |
| – | HA-P (from UniProt P06162 1-604) | no binding |
